# Measurements published in PMC10794344.
# Chains of the proteins cited; added tags and fusions are not shown.
# UniProt P42224: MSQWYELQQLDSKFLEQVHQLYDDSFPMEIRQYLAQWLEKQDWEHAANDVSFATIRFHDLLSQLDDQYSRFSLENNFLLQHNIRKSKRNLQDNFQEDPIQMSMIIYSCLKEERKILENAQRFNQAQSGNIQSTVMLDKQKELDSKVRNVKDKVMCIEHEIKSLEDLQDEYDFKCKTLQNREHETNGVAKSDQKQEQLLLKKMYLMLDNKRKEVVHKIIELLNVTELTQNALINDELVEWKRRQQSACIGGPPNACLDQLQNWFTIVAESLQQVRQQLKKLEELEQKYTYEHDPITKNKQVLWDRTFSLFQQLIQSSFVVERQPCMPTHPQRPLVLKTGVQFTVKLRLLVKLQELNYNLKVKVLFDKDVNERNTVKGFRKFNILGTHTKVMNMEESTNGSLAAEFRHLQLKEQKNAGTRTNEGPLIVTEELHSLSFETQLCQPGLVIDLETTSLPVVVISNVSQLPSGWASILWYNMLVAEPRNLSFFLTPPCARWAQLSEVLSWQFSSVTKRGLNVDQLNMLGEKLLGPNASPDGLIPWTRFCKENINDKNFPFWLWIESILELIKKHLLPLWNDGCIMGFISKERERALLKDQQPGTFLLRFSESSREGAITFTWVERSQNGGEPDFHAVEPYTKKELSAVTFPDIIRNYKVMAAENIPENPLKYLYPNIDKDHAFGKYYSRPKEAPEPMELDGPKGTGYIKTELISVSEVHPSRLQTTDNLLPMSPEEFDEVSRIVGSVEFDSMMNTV
# UniProt Q9UBN7: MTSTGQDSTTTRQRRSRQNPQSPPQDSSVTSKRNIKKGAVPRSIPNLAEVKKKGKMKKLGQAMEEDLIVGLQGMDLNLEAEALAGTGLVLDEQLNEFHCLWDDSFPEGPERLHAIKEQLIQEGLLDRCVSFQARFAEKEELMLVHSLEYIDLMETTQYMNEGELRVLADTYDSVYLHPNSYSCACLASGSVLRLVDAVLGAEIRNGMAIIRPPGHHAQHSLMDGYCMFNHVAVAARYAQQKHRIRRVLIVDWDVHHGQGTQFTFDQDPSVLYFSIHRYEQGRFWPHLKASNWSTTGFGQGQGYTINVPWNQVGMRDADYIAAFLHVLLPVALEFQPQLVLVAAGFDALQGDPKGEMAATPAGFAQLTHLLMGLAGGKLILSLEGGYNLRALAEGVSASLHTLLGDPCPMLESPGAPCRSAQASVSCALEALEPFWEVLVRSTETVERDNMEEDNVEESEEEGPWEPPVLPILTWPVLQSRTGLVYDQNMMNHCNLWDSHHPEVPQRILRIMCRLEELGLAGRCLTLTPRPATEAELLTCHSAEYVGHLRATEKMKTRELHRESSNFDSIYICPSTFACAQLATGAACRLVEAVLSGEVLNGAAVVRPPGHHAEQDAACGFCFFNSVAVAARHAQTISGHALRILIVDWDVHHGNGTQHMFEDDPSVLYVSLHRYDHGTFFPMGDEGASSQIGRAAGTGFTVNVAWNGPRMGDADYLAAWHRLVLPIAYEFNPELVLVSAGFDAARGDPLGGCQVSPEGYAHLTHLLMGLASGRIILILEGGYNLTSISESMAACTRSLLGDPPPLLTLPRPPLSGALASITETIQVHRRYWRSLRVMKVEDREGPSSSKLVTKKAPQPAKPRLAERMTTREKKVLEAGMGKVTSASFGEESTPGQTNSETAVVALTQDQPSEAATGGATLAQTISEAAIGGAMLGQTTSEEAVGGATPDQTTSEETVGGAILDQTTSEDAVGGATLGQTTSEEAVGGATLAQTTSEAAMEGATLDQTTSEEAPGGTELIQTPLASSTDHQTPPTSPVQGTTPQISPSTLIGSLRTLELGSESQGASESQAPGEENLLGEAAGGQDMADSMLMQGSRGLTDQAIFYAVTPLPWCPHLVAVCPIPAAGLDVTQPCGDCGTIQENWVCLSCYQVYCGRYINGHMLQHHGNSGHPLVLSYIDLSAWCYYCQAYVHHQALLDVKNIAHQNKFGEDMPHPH
# These are yes or no findings as the source states them, for the method shown. In cells and extracts the contact can be indirect. Some binding calls cover weakened binding; strength is not graded here.
# Molecular target: STAT1 (human (endogenous in HCT116)) (UniProt P42224)
# Experiment: co-IP; endogenous co-IP from HCT116 cell lysates; 2 µg antibody at 4 °C overnight, Protein A/G-Sepharose beads 2 h at 4 °C, washed three times with PBST; for STAT1 with NF-κB p65 (Fig. 5D) cells were pretreated with 20 ng/mL IFN-γ and then treated with ACY-1215 (0, 2.5, 5.0 µM)
substance,measurement,value
Histone deacetylase 6 (HDAC6) (from UniProt Q9UBN7 1-1215) (enzyme),binding,binds
